The values that follow come from patent publication US8476081B2, “Assay for evaluating affinity and specificity of ligand-albumin binding” (Janssen Pharmaceutica NV, priority 2009, dated 2013).

Sequences of proteins named here, by UniProt entry; tags and fusion partners are left off. Residues count along the entry.
UniProt P02768, 25-609: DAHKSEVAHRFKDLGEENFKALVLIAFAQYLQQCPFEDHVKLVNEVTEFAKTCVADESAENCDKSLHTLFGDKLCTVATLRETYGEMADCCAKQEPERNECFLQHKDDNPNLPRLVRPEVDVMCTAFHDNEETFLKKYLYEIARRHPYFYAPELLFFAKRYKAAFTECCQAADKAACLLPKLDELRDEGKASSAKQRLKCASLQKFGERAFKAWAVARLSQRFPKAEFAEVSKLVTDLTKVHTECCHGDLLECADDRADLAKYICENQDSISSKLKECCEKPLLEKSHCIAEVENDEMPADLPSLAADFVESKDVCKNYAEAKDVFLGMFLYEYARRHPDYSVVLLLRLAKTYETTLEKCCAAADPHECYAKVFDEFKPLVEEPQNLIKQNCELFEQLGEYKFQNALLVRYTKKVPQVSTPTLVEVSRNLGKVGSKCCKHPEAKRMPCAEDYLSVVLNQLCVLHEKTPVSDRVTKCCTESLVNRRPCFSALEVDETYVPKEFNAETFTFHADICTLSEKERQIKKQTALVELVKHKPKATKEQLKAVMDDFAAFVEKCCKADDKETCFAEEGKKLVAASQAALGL
UniProt P02769, 25-607: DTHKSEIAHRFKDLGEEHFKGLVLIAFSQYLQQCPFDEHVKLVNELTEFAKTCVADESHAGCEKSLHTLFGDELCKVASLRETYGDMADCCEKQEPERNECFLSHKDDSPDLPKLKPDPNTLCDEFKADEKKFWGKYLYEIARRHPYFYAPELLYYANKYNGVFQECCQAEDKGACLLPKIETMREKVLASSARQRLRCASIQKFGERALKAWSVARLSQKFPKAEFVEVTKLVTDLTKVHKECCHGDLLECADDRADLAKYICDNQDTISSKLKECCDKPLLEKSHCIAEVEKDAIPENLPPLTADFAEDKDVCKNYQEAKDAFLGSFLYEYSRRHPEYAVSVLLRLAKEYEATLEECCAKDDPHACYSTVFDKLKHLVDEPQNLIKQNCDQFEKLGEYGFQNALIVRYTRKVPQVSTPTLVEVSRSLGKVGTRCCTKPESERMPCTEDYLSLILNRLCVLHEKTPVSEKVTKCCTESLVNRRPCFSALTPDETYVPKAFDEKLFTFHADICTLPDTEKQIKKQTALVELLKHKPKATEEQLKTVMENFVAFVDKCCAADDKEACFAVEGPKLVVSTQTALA
UniProt P02770, 25-608: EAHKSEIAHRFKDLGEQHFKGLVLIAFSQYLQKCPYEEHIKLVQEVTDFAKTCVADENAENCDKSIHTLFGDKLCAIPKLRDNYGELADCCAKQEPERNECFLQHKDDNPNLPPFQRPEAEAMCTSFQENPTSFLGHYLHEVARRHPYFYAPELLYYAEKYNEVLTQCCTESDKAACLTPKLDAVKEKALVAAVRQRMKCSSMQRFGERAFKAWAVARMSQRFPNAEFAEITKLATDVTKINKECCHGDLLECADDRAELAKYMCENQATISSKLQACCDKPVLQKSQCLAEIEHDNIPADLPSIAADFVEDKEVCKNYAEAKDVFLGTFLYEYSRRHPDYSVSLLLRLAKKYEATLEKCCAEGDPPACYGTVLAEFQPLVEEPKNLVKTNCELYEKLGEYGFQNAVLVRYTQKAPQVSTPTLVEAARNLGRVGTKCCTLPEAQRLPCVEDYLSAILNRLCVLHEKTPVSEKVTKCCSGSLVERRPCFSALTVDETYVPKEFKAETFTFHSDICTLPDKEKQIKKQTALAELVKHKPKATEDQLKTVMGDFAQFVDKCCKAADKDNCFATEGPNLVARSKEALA
UniProt P07724, 25-608: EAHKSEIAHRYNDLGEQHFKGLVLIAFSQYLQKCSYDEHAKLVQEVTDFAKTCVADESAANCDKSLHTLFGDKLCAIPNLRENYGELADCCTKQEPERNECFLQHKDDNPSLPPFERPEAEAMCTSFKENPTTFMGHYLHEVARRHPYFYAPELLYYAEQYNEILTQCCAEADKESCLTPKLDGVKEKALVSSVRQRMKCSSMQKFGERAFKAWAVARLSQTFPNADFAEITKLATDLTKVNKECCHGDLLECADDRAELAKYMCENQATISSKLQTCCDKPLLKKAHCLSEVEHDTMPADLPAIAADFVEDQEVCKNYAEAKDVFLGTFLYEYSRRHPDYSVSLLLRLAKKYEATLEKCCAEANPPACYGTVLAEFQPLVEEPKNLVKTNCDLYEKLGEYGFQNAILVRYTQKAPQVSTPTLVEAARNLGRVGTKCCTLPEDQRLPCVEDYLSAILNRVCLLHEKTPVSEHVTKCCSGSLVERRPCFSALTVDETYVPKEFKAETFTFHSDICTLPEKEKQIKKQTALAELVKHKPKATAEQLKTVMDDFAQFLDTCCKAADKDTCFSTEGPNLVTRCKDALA

Each structure is given as a SMILES string.

Assay [1] has as its target Human Serum Albumin (HSA) site I (Homo sapiens, UniProt P02768). The experiment in a line: 1,8-ANS site-specific probe displacement (fluorescence) from HSA site I. The conditions noted are these: percent displacement of the site-specific probe 1,8-ANS at the second highest concentration of test ligand. The source says: In addition to the thermal shift assay, the assay test plate may be utilized in a separate fluorescence measurement using a plate-based reader that is compatible with any relevant wavelengths. The preferred plate-based reader is Tecan Satire II. The displacement of site-specific probe such as 1,8-ANS from albumin site 1 by test ligand may cause a decrease in observed fluorescence that may be fit to Equation 11 to determine the value of IC50.
Additionally, the percent displacement may be determined by (y−yhigh), divided by the difference of low (y0) and high endpoints (yhigh), wherein y is determined at the second highest concentration. […]
The values of Tm, ΔH, yF,Tm, mF, yU,Tm and mU were calculated for each sample according to Equation 9. […] A shift of the fluorescence signal indicates the specificity of compounds to albumin, and the value of IC50 indicates the binding strength to the site I (Equation 11).
The compounds and 1× reaction mixture were dispensed and measured for the fluorescence value using the plate-based reader Tecan® Safire II. Then the plate was heated in a ThermoFluor® system and measured for fluorescence value and the thermal shift value. The fluorescence values were measured twice by both plate reader and ThermoFluor®. […] The value of IC50 was determined by the fluorescence obtained from the plate reader and was fit using Equation 11 described above. […]

A further assay addresses HSA (Homo sapiens, UniProt P02768). As to conditions: binding site on HSA from previous reports; cited from earlier work.
For assay [2], the target named is T1, Bovine Serum Albumin (BSA) (Bos taurus, UniProt P02769).
T1 construct: The above albumins were prepared using method IV of Cohn et al. (J. Am. Chem. Soc. 69: 1753-1761, 1947) and purified with 1× crystallization; purchased Sigma A-7638
The experiment in a line: ThermoFluor thermal shift assay with bovine serum albumin. It is filed as binding. As to conditions: Example 4, Table 3. An excerpt:
(§1) To evaluate the bioavailability of a compound in various species, the compound's affinity and specificity to albumins from human, bovine, rat, and mouse were examined. […] The resulting 1× reaction mixture comprising human serum albumin, bovine serum albumin, rat serum albumin, or mouse serum albumin was used with a panel of compounds in the binding assay.

Assay [3] addresses Human Serum Albumin (HSA) (Homo sapiens, UniProt P02768). Put plainly: ThermoFluor thermal shift assay with human serum albumin. As to conditions: for Type of HSA Binding Interaction: classified from KD versus IC50 and % displacement of 1,8-ANS. Here is the method:
1× reaction mixture of about 50 μg/mL human serum albumin, about 4 μM 1,8-ANS, about 150 mM NaCl, about 25 mM PIPES, pH 7.2, and about 0.002% Tween®-20 was prepared.
To prevent evaporation, about 1 μL of silicone oil was added to the plate using multichannel pipettors.
The plates were loaded onto a ThermoFluor® device and heated from about 25° C. to about 95° C. at a ramp-rate of about 1° C. per minute. Fluorescence was measured by continuous illumination with UV light (Hamamatsu LC6) via fiber optic and filtered through a band-pass filter of about 390±10 nm; >6 OD cutoff. Fluorescence emissions were detected by measuring light intensity using a CCD camera (Sensys, Roper Scientific) filtered to detect about 500±25 nm; >6 OD cutoff. This allows for the entire plate to be simultaneously monitored and each sample to be independently monitored. One or more images were collected at an interval of every about 0.5° C. to about 1° C. The sum of the pixel intensity at a given area of the plate was recorded vs. temperature.
The values of Tm, ΔH, yF,Tm, mF, yU,Tm and mU were calculated for each sample according to Equation 9. Further, the value of Tm over the compound concentration was used to calculate the binding constant (KD) using Equation 10b. A shift in the denaturation curve of albumin indicates whether the compound binds to albumin, and the value of KD indicates the binding strength of compounds to albumin. A shift of the fluorescence signal indicates the specificity of compounds to albumin, and the value of IC50 indicates the binding strength to the site I (Equation 11).
The compounds and 1× reaction mixture were dispensed and measured for the fluorescence value using the plate-based reader Tecan® Safire II. Then the plate was heated in a ThermoFluor® system and measured for fluorescence value and the thermal shift value. The fluorescence values were measured twice by both plate reader and ThermoFluor®. The fluorescence value obtained from ThermoFluor® was used for qualitative assessment whereas those from the plate reader was used for quantitative assessment. The value of IC50 was determined by the fluorescence obtained from the plate reader and was fit using Equation 11 described above. The value of KD was determined by the readings from ThermoFluor® and was fit using Equation 10b described above.

The next assay has as its target T2, Rat Serum Albumin (Rattus norvegicus, UniProt P02770).
T2 construct: The above albumins were prepared using method IV of Cohn et al. (J. Am. Chem. Soc. 69: 1753-1761, 1947) and purified with 1× crystallization; purchased Sigma A-6414
The experiment in a line: ThermoFluor thermal shift assay with rat serum albumin. It is filed as binding. The conditions noted are these: Example 4, Table 3.
Source text: as §1

Another assay addresses T3, Mouse Serum Albumin (Mus musculus, UniProt P07724).
T3 construct: The above albumins were prepared using method IV of Cohn et al. (J. Am. Chem. Soc. 69: 1753-1761, 1947) and purified with 1× crystallization; purchased Sigma A-3559
The experiment in a line: ThermoFluor thermal shift assay with mouse serum albumin. The assay is classed as binding. As to conditions: Example 4, Table 3.
Source text: as §1

`COc1ccc2cc([C@H](C)C(=O)O)ccc2c1` [S-Naproxen, s-naproxen]: in assay [1], the “% Displacement” value is “(02) %”. Also, the “Reported Binding Site” value at HSA is reported as “Site 2”. Besides, the Kd in assay [2] is 16.1 µM; at Rat Serum Albumin, 18.5 µM; at Mouse Serum Albumin it was 11.3 µM. Moreover, the “Type of HSA Binding Interaction” value in assay [3] is recorded as “Type 2”.

Take `NS(=O)(=O)c1cc(C(=O)O)c(NCc2ccco2)cc1Cl` [Furosemide, furosemide]: in assay [1], the “% Displacement” value is “(18) %”. The “Reported Binding Site” value on HSA is recorded as “Site 1”. Further, the dissociation constant (Kd) in assay [2] was 49.1 µM; in assay [3] (HSA - KD, Example 3, Table 2, ThermoFluor, Equation 10b), 16.7 µM; in assay [3] (Human Albumin (KD), Example 4, Table 3), 16.7 µM; on Rat Serum Albumin, 24 µM. The “Type of HSA Binding Interaction” value in assay [3] is listed as “Type 2”.
